Consider 1 sequence from patent US10624964, “Methods and compositions for stimulating immune response using potent immunostimulatory RNA motifs” (The Trustees of the University of Pennsylvania).

Chains of the proteins cited; added tags and fusions are not shown. Lines headed by an entry give the natural chain unless they say otherwise; changes in a name come on top.
UniProt Q9BYX4: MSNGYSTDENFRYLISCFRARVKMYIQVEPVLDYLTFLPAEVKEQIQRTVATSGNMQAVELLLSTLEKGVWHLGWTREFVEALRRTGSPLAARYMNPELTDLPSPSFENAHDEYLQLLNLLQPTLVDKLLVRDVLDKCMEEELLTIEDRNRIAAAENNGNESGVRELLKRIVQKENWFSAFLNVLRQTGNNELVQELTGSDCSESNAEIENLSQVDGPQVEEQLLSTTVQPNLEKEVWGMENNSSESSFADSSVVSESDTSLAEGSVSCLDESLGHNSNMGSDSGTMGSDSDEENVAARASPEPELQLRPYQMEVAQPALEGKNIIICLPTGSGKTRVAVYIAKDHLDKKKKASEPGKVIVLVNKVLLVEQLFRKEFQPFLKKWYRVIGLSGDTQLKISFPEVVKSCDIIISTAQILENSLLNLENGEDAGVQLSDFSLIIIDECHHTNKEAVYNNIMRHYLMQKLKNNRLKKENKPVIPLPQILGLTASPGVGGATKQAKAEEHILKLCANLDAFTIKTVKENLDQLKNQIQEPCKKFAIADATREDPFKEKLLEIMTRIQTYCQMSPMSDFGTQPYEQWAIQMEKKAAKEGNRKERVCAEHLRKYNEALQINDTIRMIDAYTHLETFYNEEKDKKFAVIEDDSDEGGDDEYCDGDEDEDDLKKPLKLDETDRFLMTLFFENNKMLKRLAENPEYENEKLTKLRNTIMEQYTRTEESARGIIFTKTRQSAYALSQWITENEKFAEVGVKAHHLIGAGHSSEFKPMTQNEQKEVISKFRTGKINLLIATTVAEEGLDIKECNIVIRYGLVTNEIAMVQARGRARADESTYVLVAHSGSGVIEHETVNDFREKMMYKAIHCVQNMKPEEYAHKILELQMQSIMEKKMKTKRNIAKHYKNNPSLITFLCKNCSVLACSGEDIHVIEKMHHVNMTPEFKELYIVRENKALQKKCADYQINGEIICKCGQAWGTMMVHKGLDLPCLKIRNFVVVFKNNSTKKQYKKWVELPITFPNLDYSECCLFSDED
UniProt O95786: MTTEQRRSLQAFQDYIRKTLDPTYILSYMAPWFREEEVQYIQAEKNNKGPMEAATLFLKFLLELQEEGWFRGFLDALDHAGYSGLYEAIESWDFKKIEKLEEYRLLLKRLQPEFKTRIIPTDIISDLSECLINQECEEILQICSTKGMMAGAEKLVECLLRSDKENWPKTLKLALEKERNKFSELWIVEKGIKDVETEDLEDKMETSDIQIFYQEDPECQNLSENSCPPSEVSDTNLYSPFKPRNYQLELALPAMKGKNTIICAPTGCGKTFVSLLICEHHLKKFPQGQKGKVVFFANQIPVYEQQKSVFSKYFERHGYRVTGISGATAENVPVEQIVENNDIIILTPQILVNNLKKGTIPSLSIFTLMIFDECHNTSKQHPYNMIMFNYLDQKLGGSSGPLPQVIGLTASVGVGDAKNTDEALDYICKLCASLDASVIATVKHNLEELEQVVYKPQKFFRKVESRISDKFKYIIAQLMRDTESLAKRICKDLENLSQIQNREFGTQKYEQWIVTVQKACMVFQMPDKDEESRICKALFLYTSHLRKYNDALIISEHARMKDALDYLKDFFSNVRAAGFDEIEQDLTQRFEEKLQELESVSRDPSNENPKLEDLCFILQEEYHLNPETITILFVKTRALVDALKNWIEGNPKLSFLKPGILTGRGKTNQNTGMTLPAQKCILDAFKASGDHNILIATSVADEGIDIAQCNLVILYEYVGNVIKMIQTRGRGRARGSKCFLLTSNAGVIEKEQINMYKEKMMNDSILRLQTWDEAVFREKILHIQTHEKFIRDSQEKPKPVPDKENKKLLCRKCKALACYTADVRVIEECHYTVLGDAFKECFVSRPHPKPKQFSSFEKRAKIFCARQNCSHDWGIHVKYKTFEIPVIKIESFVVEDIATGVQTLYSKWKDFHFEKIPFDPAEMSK

Construct, isoform or probe ends are uncertain for at least one entry.

Series [1] concerns the target MDA5 deltaCARD (MDA5 without the two N-terminal CARDs) (UniProt Q9BYX4). In words: EMSA. Particulars: 5'-triphosphate (T7 transcript); 20 mM HEPES pH 7.5, 150 mM NaCl, 1.5 mM MgCl2, 2 mM DTT, 37 C; purified recombinant protein; protein details: deltaCARD, provided by Sun Hur.
Series [2] concerns the target RIG-I deltaCARD (RIG-I without the two N-terminal CARDs) (UniProt O95786). As to the kind of experiment: EMSA. Particulars: 5'-triphosphate (T7 transcript); without ATP and with 1 uM ATP; 20 mM HEPES pH 7.5, 150 mM NaCl, 1.5 mM MgCl2, 2 mM DTT, 37 C; purified recombinant protein; protein details: deltaCARD, provided by Sun Hur. (In general: Mobility shift assays separate free from complexed probe on a gel.)

On to “ACCAGACAAGAGUUUAAGAGAUAUGUAUCCUUUUAAAUUUUCUUGUCUUCUUGUAAGUUUUUCUUGCUAUUGUCAUAUGGAUAAGUCCAAGACUAUCUUUAUCUAUGUCCACAAGAUUGGUAACUGGGUCAUUCCCUGACCAGAAGUUUGAAGCAAGACUUCCCGGUACCUGGAAGUCUUGGACUUAUCCAUAUGACAAUAGUAAGAAAAACUUACAAGAAGACAAGAAAAUUUAAUAGGAUACAUAUCUCUUAAACUCUUGUCUGGU [DVG-268 ivtRNA]”, for which the binding result in series [1] and in series [2] was “binds” throughout.
